# Experimental data reported in the supplement of paper PMC8728848.
# This is one part of the list.
# B1: SHCBP1-GST (Homo sapiens), Q8NEM2 (protein)
# chain: MADGSLTGGGLEAAAMAPERMGWAVEQELASLEKGLFQDEDSCSDCSYRDKPGSSLQSFMPEGKTFFPEIFQTNQLLFYERFRAYQDYILADCKASEVQEFTAEFLEKVLEPSGWRAVWHTNVFKVLVEITDVDFAALKAVVRLAEPYLCDSQVSTFTMECMKELLDLKEHRLPLQELWVVFDDSGVFDQTALAIEHVRFFYQNIWRSWDEEEEDEYDYFVRCVEPRLRLHYDILEDRVPSGLIVDYHNLLSQCEESYRKFLNLRSSLSNCNSDSEQENISMVEGLKLYSEMEQLKQKLKLIENPLLRYVFGYQKNSNIQAKGVRSSGQKITHVVSSTMMAGLLRSLLTDRLCQEPGEEEREIQFHSDPLSAINACFEGDTVIVCPGHYVVHGTFSIADSIELEGYGLPDDIVIEKRGKGDTFVDCTGADIKISGIKFVQHDAVEGILIVHRGKTTLENCVLQCETTGVTVRTSAEFLMKNSDLYGAKGAGIEIYPGSQCTLSDNGIHHCKEGILIKDFLDEHYDIPKISMVNNIIHNNEGYGVVLVKPTIFSDLQENAEDGTEENKALKIQTSGEPDVAERVDLEELIECATGKMELCARTDPSEQVEGNCEIVNELIAASTQKGQIKKKRLSELGITQADDNLMSQEMFVGIVGNQFKWNGKGSFGTFLF
# How the values were obtained:
# Test in all cases: glycan array binding signal (z-score within array); higher = stronger binding
# Settings in all cases: glycan notation: IUPAC condensed, linker removed
# GalNAc(b1-4)GlcNAc = molecular target: GalNAc(b1-4)GlcNAc
# How it was run: (§1)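 Arrays were curated from the Consortium for Functional Glycomics database, 3228 in total, and kept only where the protein sequence was available. Binding is expressed as a within-array Z-score. This score was averaged across arrays of the same protein sequence at different concentrations or buffers and across linkers, and negative values can be read as non-binding.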
# [1] = molecular target: GalNAc(b1-4)GlcNAc(b1-2)Man
# How it was run: as §1
# [2] = molecular target: GalNAc(b1-4)GlcNAc(b1-2)Man(a1-3)[GalNAc(b1-4)GlcNAc(b1-2)Man(a1-6)]Man(b1-4)GlcNAc(b1-4)GlcNAc
# How it was run: as §1
# [3] = molecular target: GalNAc(b1-4)GlcNAc(b1-3)GalNAc(b1-4)GlcNAc
# How it was run: as §1
# GalNAc(b1-4)GlcNAc6S = molecular target: GalNAc(b1-4)GlcNAc6S
# How it was run: as §1
# GalNAc(b1-6)GalNAc = molecular target: GalNAc(b1-6)GalNAc
# How it was run: as §1
# GalNAc3S(b1-4)GlcNAc = molecular target: GalNAc3S(b1-4)GlcNAc
# How it was run: as §1
# GalNAc3S(b1-4)GlcNAc3S = molecular target: GalNAc3S(b1-4)GlcNAc3S
# How it was run: as §1
# [4] = molecular target: GalNAc3S(b1-4)[Fuc(a1-3)]GlcNAc
# How it was run: as §1
# GalNAc4S6S(b1-4)GlcNAc = molecular target: GalNAc4S6S(b1-4)GlcNAc
# How it was run: as §1
# GalNAc6S(b1-4)GlcNAc = molecular target: GalNAc6S(b1-4)GlcNAc
# How it was run: as §1
# Glc(a1-4)Glc = molecular target: Glc(a1-4)Glc
# How it was run: as §1
# [5] = molecular target: Glc(a1-4)Glc(a1-4)Glc(a1-4)Glc
# How it was run: as §1
# Glc(a1-6)Glc(a1-6)Glc = molecular target: Glc(a1-6)Glc(a1-6)Glc
# How it was run: as §1
# [6] = molecular target: Glc(a1-6)Glc(a1-6)Glc(a1-6)Glc
# How it was run: as §1
# Glc(b1-4)Glc = molecular target: Glc(b1-4)Glc
# How it was run: as §1
# Glc(b1-6)Glc = molecular target: Glc(b1-6)Glc
# How it was run: as §1
# GlcA(b1-3)Gal = molecular target: GlcA(b1-3)Gal
# How it was run: as §1
# GlcA(b1-3)GlcNAc = molecular target: GlcA(b1-3)GlcNAc
# How it was run: as §1
# GlcA(b1-6)Gal = molecular target: GlcA(b1-6)Gal
# How it was run: as §1
# [7] = molecular target: GlcA3S(b1-3)Gal(b1-4)GlcNAc(b1-2)Man
# How it was run: as §1
# [8] = molecular target: GlcA3S(b1-3)Gal(b1-4)GlcNAc(b1-3)Gal(b1-4)Glc
# How it was run: as §1
# [9] = molecular target: GlcNAc(a1-3)Gal(b1-4)GlcNAc
# How it was run: as §1
# [10] = molecular target: GlcNAc(a1-4)Gal(b1-3)GlcNAc
# How it was run: as §1
# [11] = molecular target: GlcNAc(a1-4)Gal(b1-4)GalNAc
# How it was run: as §1
# [12] = molecular target: GlcNAc(a1-4)Gal(b1-4)GlcNAc
# How it was run: as §1
# [13] = molecular target: GlcNAc(a1-4)Gal(b1-4)GlcNAc(b1-3)Gal(b1-4)Glc
# How it was run: as §1
# [14] = molecular target: GlcNAc(a1-4)Gal(b1-4)GlcNAc(b1-3)Gal(b1-4)GlcNAc
# How it was run: as §1
# [15] = molecular target: GlcNAc(a1-4)Gal(b1-4)GlcNAc(b1-3)Gal(b1-4)GlcNAc(b1-3)Gal(b1-4)GlcNAc
# How it was run: as §1
# [16] = molecular target: GlcNAc(a1-4)Gal(b1-4)GlcNAc(b1-3)Gal(b1-4)[Fuc(a1-3)]GlcNAc(b1-3)Gal(b1-4)[Fuc(a1-3)]GlcNAc
# How it was run: as §1
binder,measurement,setting,value
B1,glycan array binding signal (z-score),GalNAc(b1-4)GlcNAc,-0.137
same,glycan array binding signal (z-score),[1],-0.09
same,glycan array binding signal (z-score),[2],2.96
same,glycan array binding signal (z-score),[3],-0.059
same,glycan array binding signal (z-score),GalNAc(b1-4)GlcNAc6S,-0.496
same,glycan array binding signal (z-score),GalNAc(b1-6)GalNAc,0.273
same,glycan array binding signal (z-score),GalNAc3S(b1-4)GlcNAc,-0.101
same,glycan array binding signal (z-score),GalNAc3S(b1-4)GlcNAc3S,-0.53
same,glycan array binding signal (z-score),[4],-0.082
same,glycan array binding signal (z-score),GalNAc4S6S(b1-4)GlcNAc,-0.663
same,glycan array binding signal (z-score),GalNAc6S(b1-4)GlcNAc,-0.066
same,glycan array binding signal (z-score),Glc(a1-4)Glc,0.427
same,glycan array binding signal (z-score),[5],-0.15
same,glycan array binding signal (z-score),Glc(a1-6)Glc(a1-6)Glc,-0.548
same,glycan array binding signal (z-score),[6],0.181
same,glycan array binding signal (z-score),Glc(b1-4)Glc,0.043
same,glycan array binding signal (z-score),Glc(b1-6)Glc,-0.297
same,glycan array binding signal (z-score),GlcA(b1-3)Gal,-0.172
same,glycan array binding signal (z-score),GlcA(b1-3)GlcNAc,-0.744
same,glycan array binding signal (z-score),GlcA(b1-6)Gal,-0.457
same,glycan array binding signal (z-score),[7],-0.147
same,glycan array binding signal (z-score),[8],-0.5
same,glycan array binding signal (z-score),[9],-0.189
same,glycan array binding signal (z-score),[10],-0.213
same,glycan array binding signal (z-score),[11],0.552
same,glycan array binding signal (z-score),[12],0.045
same,glycan array binding signal (z-score),[13],-0.361
same,glycan array binding signal (z-score),[14],0.084
same,glycan array binding signal (z-score),[15],-0.634
same,glycan array binding signal (z-score),[16],2.67

# Two entries from above, with tabs:
binder	measurement	setting	value
B1	glycan array binding signal (z-score)	[14]	0.084
same	glycan array binding signal (z-score)	[15]	-0.634
